Laboratory results reported in article doi:10.1101/2022.10.08.511390.
No constants are given. Whether binding was seen depends on the method and setting. Binding seen in cells or lysates may run through a third protein.

Target: T1, 2-oxoglutarate dehydrogenase complex subunit E1o (OGDH), mouse (mouse (endogenous in mouse heart mitochondria)), Q60597
T1 chain: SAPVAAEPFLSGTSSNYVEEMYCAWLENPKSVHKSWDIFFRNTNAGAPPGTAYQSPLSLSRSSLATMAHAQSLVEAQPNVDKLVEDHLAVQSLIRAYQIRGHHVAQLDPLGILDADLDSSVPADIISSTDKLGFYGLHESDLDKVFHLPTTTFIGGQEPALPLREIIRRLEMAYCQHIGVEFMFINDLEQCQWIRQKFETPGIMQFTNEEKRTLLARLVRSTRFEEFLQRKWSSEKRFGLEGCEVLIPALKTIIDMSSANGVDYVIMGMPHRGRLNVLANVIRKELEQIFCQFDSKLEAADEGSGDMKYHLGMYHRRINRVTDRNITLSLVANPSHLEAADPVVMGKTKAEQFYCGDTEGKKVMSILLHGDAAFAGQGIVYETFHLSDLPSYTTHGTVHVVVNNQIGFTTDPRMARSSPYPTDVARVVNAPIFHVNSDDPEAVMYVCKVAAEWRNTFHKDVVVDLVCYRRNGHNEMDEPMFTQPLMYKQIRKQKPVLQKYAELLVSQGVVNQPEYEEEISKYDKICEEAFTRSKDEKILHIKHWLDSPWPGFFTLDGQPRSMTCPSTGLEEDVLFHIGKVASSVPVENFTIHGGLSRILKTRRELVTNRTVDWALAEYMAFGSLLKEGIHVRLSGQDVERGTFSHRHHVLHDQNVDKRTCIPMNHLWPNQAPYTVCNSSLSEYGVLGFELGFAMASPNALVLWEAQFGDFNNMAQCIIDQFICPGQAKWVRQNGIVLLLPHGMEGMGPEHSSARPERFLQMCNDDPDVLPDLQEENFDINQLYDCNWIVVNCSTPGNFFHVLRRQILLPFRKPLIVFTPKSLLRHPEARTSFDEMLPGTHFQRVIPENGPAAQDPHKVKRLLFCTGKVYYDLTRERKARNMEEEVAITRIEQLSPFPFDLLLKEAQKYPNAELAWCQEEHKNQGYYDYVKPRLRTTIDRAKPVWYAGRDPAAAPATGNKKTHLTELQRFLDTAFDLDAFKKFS
Test: cross-linking
Settings: remark: other sources report otherwise

binding: no binding
B1: MRPS36 (KGD4), mouse, Q9CQX8 1-102 (protein)
chain: MGSKMASATRVVQVVKPHAPLIKFPNRRDKPKLSASEALGSAALPSHSSAISQHSKGSTSPDLLMHQGPPDTAEIIKSLPQKYRRKPMSQEEMEFIQRGGPE
